Test results from the supplement of paper PMC6078165.
Values are relative to the signal before dosing, not to a vehicle control; the signal also falls without drug.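 Fibroblast labels denote human fibroblasts, mainly primary ones from uterus (C12385, HUF), lung (H6013), bone (Hs27A), adrenal (HADF) and skin (WS1), plus mammary HMF and breast cancer-associated Hs343T. Cancer cells are basal-like or mesenchymal-like triple-negative breast cancer lines. A hit is a response shift exceeding 3x replicate standard deviation. The tissue of the other fibroblasts is not given here.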

Tested on: HCC1143
Experiment: relative JC-1 red fluorescence (viability) vs pre-drug, coculture with fibroblast (fraction); higher = more viable cancer cells
Procedure: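 JC-1 labelled TNBC cells cocultured 1:1 (1,500 cells each) with CellTrace Violet stained primary or stromal fibroblasts in 384-well plates in FluoroBrite medium, treated with one of 42 anticancer drugs at 0.1, 1, 10 or 100 uM. JC-1 red fluorescence (mitochondrial integrity in cancer cells only) was read by plate reader every 8 h for 72 h. Values are normalised to each well's pre-drug value. The stock of one drug was tenfold lower, so its dose labels may be too high.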

COc1cc([C@@H]2c3cc4c(cc3[C@@H](O[C@@H]3O[C@@H]5CO[C@@H](c6cccs6)O[C@H]5[C@H](O)[C@H]3O)[C@H]3COC(=O)[C@H]23)OCO4)cc(OC)c1O [Teniposide]
relative JC-1 red fluorescence
Details	8 h	16 h	24 h	32 h	40 h	48 h	56 h	64 h	72 h
10 µM, coculture fibroblast: C12385	0.887	0.86	0.83	0.791	0.733	0.73	0.716	0.701	0.703
10 µM, coculture fibroblast: H6013	0.7732	0.736	0.697	0.694	0.661	0.666	0.643	0.639	0.574
10 µM, coculture fibroblast: H6019	0.8489	0.7957	0.7596	0.6984	0.642	0.621	0.583	0.566	0.557
10 µM, coculture fibroblast: H6076	0.8192	0.8113	0.7894	0.73	0.693	0.677	0.664	0.639	0.647
10 µM, coculture fibroblast: H6231	0.823	0.827	0.762	0.686	0.657	0.627	0.597	0.5613	0.559
10 µM, coculture fibroblast: HADF	0.761	0.732	0.697	0.696	0.626	0.613	0.596	0.585	0.538
10 µM, coculture fibroblast: HCFa	0.799	0.724	0.662	0.637	0.568	0.542	0.503	0.474	0.423
10 µM, coculture fibroblast: HCPF	0.8131	0.872	0.808	0.68	0.712	0.685	0.647	0.61	0.605
10 µM, coculture fibroblast: HHSteC	0.858	0.802	0.751	0.718	0.637	0.609	0.57	0.547	0.503
10 µM, coculture fibroblast: HMF	0.818	0.851	0.788	0.715	0.715	0.683	0.651	0.625	0.612
10 µM, coculture fibroblast: HPFa	0.8903	0.8227	0.7955	0.714	0.672	0.656	0.61	0.594	0.576
10 µM, coculture fibroblast: HUF	0.84514	0.777	0.73	0.664	0.627	0.627	0.598	0.59	0.584
10 µM, coculture fibroblast: Hs5	0.855	0.899	0.843	0.784	0.733	0.6913	0.6514	0.625	0.6305
10 µM, coculture fibroblast: Hs27A	0.735	0.679	0.638	0.66	0.555	0.563	0.545	0.541	0.493
10 µM, coculture fibroblast: Hs343T	0.8138	0.85	0.771	0.671	0.6266	0.587	0.544	0.513	0.496
10 µM, coculture fibroblast: WS1	0.8359	0.761	0.708	0.634	0.596	0.586	0.566	0.554	0.548
100 µM, coculture fibroblast: C12385	0.858	0.81	0.764	0.766	0.8	0.77	0.772	0.735	0.681
100 µM, coculture fibroblast: H6013	0.8	0.765	0.759	0.784	0.762	0.795	0.778	0.78	0.69
100 µM, coculture fibroblast: H6019	0.892	0.849	0.8	0.745	0.72	0.717	0.69	0.695	0.68
100 µM, coculture fibroblast: H6076	0.834	0.797	0.77	0.769	0.717	0.733	0.75	0.772	0.808
100 µM, coculture fibroblast: H6231	0.847	0.8726	0.79	0.748	0.798	0.8079	0.769	0.7351	0.7478
100 µM, coculture fibroblast: HADF	0.767	0.728	0.721	0.751	0.694	0.72	0.712	0.701	0.623
100 µM, coculture fibroblast: HCFa	0.855	0.812	0.79	0.833	0.87	0.898	0.876	0.863	0.807
100 µM, coculture fibroblast: HCPF	0.859	0.86468	0.853	0.798	0.843	0.821	0.794	0.783	0.787
100 µM, coculture fibroblast: HHSteC	0.875	0.856	0.837	0.844	0.844	0.868	0.86	0.831	0.744
100 µM, coculture fibroblast: HMF	0.8554	0.886	0.858	0.81	0.81	0.84	0.847	0.842	0.817
100 µM, coculture fibroblast: HPFa	0.877	0.794	0.785	0.736	0.734	0.736	0.712	0.716	0.718
100 µM, coculture fibroblast: HUF	0.892	0.852	0.814	0.761	0.735	0.75	0.716	0.72	0.715
100 µM, coculture fibroblast: Hs5	0.902	0.9221	0.9206	0.916	0.87	0.836	0.809	0.795	0.822
100 µM, coculture fibroblast: Hs27A	0.778	0.7383	0.7573	0.839	0.798	0.876	0.875	0.871	0.771
100 µM, coculture fibroblast: Hs343T	0.882	0.881	0.8538	0.822	0.7919	0.814	0.806	0.8246	0.8505
100 µM, coculture fibroblast: WS1	0.863	0.807	0.787	0.748	0.75	0.768	0.753	0.753	0.762
